Some entries share one result that the patent states for a list of compounds.
System: Diabrotica balteata
Experiment: Diabrotica balteata (Corn Rootworm): 24-well microtiter plate with artificial diet, L2 larvae, larval mortality
Type: in vivo
Conditions: 5 days; for control of Diabrotica balteata: application rate 200 ppm (concentration in well 18 ppm)
Method: Diabrotica balteata (Corn Rootworm)
[…] After drying, the MTP's are infested with L2 larvae (6-10 per well). After an incubation period of 5 days, samples are checked for larval mortality.
Compounds are tested according to the above method.

SMILES | control of Diabrotica balteata at 50 ppm or less | control of Diabrotica balteata
CCC(=O)NCc1ccc(C2=NCC(c3cc(Cl)cc(Cl)c3)(C(F)(F)F)C2)cc1Br (centres unmarked) [Compound A6] | * (gave at least 80% control at 50 ppm or less) | at least 80%
O=C(NCc1ccc(C2=NCC(c3cc(Cl)cc(Cl)c3)(C(F)(F)F)C2)cc1Br)C1CC1 (centres unmarked) [Compound A7] | * (gave at least 80% control at 50 ppm or less) | at least 80%
N#Cc1cc(N2CCC(c3cc(Cl)cc(Cl)c3)(C(F)(F)F)C2)ccc1-n1cncn1 (centres unmarked) [Compound C1] |  | at least 80%

From patent US20150208658A1, “METHODS OF SOIL PEST CONTROL” (Syngenta Participations AG, priority 2012, published 2015)
